Test results from the supplement of paper PMC10849652.
The list shows a part of the results. Residues, ends and D or L forms follow the SMILES beside them. *: point of attachment. Cbz = O=C(OCc1ccccc1)*

Protein sequences, listed by entry. Tags and fused reporters are not part of them. Lines headed by an entry give the natural chain unless they say otherwise; changes in a name come on top.
UniProt P28715: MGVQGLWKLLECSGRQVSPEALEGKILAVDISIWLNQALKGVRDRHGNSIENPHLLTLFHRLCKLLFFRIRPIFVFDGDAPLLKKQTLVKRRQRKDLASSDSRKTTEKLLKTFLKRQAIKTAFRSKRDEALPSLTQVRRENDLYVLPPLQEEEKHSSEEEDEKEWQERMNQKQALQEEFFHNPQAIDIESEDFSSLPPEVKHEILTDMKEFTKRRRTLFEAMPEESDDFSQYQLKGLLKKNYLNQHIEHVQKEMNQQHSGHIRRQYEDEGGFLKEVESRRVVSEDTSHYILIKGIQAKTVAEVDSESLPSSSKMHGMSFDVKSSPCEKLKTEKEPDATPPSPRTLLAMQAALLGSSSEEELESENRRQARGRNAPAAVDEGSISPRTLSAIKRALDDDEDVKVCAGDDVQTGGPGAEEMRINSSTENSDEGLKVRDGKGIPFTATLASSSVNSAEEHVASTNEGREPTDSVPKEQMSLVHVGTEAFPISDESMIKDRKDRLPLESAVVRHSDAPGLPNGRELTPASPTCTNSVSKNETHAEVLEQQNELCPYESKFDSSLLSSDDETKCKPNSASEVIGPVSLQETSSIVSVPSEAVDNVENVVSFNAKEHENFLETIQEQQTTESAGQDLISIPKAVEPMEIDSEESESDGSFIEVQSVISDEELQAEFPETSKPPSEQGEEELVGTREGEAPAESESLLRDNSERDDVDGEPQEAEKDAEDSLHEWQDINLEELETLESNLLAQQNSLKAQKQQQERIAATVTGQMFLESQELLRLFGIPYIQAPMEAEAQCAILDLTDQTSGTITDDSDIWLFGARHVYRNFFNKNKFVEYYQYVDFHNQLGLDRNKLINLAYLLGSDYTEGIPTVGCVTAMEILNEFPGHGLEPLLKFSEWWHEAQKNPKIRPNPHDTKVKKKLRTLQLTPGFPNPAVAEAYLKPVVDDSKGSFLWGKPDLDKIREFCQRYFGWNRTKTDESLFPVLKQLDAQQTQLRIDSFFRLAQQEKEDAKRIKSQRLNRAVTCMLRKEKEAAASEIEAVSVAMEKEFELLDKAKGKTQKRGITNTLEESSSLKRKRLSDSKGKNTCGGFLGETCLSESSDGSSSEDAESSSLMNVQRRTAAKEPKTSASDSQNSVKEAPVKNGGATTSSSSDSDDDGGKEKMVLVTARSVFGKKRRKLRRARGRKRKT
UniProt Q6P2I3: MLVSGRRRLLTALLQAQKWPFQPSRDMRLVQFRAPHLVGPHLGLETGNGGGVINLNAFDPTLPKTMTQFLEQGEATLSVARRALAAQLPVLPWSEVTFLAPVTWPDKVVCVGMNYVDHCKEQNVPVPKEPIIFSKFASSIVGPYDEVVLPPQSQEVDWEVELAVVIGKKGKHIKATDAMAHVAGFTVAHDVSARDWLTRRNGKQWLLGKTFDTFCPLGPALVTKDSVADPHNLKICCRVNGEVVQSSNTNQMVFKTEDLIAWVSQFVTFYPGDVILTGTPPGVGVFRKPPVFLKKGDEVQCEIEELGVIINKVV
UniProt O60645: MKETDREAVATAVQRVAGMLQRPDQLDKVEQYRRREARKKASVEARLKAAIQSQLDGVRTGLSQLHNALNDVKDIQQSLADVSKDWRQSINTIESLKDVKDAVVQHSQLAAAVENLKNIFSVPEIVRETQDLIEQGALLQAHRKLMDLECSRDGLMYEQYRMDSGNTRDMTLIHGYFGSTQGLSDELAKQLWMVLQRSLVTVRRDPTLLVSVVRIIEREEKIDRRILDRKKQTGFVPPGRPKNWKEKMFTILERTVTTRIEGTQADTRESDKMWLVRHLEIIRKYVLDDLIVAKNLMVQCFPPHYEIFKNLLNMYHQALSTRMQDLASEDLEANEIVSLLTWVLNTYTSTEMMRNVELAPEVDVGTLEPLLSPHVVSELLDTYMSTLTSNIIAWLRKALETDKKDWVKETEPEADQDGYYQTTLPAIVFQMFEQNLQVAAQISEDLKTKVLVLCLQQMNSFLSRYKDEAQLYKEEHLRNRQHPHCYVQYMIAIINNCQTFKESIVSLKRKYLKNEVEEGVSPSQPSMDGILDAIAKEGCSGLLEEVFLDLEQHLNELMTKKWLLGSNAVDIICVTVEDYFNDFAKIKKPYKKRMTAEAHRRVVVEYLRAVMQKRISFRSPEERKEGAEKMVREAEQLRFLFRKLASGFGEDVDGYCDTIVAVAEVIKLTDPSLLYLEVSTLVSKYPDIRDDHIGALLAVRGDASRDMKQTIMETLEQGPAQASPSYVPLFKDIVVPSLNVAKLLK
UniProt Q5RKV6, whole entry, looked up: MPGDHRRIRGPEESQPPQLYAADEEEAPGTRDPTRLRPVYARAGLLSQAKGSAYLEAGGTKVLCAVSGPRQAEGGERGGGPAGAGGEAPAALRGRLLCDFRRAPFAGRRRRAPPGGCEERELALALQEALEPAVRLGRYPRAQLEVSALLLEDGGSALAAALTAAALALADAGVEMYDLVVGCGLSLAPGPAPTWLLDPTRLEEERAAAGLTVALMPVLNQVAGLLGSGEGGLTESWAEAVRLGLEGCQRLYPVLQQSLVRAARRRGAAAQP
UniProt Q93063: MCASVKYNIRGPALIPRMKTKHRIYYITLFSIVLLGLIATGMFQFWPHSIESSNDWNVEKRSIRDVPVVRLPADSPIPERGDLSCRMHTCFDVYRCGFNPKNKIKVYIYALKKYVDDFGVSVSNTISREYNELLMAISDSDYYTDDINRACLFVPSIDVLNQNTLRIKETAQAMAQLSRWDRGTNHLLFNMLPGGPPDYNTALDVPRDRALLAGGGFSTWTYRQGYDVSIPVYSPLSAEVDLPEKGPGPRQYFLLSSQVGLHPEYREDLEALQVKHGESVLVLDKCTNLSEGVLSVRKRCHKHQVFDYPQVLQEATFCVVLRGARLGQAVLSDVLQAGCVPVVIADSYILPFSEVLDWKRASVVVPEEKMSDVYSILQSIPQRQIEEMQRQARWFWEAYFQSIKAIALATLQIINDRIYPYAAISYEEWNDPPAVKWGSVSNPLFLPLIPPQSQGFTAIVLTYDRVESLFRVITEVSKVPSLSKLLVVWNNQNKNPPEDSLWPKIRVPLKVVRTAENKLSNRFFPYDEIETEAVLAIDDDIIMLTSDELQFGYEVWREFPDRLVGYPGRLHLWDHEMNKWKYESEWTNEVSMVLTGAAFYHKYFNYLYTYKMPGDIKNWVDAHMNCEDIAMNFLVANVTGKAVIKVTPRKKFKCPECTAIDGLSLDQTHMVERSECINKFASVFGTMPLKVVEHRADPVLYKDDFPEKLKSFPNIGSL
UniProt Q9NPD3, whole entry, looked up: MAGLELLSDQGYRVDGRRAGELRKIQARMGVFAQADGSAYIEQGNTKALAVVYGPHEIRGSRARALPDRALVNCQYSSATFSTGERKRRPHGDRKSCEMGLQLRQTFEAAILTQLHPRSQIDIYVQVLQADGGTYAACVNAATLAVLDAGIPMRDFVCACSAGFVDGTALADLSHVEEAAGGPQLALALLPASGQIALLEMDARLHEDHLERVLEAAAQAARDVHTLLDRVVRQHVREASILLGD
UniProt Q9Y2J2, whole entry, looked up: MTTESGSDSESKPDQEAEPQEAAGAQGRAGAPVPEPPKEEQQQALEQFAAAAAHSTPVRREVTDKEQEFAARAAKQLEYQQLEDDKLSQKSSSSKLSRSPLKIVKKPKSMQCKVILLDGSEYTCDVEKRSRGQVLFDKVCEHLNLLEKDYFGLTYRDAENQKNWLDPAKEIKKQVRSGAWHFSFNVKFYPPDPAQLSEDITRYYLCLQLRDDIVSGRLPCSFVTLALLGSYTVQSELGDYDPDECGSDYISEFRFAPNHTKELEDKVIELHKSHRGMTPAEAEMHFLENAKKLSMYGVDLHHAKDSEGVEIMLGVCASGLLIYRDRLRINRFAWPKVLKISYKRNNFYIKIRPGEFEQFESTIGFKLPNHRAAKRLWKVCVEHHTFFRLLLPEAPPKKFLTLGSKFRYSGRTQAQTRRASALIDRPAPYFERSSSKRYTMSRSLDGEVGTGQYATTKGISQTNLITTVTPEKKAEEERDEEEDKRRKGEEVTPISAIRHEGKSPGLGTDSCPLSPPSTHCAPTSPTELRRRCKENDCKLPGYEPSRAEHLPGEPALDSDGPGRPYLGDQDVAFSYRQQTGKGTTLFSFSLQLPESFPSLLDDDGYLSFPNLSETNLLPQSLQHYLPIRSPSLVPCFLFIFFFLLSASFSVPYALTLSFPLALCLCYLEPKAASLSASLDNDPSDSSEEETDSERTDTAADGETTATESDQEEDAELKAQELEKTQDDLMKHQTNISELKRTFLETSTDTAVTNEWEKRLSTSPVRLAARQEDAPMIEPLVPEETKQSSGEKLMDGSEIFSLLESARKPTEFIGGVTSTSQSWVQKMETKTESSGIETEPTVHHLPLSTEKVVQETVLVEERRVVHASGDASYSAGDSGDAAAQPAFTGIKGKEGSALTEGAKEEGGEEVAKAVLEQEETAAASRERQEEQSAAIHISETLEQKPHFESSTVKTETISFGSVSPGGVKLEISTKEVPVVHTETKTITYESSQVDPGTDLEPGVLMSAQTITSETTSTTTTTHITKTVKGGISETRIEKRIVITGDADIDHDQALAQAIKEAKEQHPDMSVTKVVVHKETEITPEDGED
UniProt Q9UKR5: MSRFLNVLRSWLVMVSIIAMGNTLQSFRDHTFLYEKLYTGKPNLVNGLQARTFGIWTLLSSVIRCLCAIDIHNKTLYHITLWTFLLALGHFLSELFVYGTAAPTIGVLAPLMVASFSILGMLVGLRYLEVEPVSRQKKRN
UniProt Q7Z2K6: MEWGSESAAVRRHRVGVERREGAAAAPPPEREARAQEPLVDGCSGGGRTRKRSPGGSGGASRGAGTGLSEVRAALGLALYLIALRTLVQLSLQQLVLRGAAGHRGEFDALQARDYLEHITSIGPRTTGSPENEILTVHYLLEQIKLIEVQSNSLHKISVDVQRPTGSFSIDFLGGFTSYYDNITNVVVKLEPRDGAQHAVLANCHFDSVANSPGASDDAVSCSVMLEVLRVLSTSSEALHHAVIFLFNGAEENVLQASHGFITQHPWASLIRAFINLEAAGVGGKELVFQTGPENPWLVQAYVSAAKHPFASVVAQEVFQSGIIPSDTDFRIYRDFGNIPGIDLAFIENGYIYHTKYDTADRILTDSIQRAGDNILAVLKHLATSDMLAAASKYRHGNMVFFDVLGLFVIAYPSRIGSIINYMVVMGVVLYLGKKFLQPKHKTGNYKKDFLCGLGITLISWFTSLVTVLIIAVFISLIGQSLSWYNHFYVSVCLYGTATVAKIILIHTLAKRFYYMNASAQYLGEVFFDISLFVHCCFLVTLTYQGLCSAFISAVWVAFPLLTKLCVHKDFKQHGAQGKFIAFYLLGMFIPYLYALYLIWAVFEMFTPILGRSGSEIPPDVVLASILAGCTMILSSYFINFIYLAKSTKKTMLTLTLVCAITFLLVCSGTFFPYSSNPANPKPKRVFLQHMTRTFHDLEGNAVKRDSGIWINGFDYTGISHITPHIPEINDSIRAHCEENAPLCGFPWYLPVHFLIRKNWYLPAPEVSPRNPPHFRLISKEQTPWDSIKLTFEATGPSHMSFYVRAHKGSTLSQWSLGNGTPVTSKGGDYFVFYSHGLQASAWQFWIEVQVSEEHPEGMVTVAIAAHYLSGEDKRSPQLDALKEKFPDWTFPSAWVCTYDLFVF
UniProt P13804: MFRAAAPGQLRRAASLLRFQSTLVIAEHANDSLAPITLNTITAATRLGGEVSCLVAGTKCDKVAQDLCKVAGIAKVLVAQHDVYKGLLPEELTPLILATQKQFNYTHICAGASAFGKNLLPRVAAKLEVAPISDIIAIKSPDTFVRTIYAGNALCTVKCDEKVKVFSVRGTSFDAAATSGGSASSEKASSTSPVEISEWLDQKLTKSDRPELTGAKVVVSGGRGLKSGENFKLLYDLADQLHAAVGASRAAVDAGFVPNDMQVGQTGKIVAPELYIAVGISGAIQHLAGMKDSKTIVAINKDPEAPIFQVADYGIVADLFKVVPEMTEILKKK
UniProt Q01844: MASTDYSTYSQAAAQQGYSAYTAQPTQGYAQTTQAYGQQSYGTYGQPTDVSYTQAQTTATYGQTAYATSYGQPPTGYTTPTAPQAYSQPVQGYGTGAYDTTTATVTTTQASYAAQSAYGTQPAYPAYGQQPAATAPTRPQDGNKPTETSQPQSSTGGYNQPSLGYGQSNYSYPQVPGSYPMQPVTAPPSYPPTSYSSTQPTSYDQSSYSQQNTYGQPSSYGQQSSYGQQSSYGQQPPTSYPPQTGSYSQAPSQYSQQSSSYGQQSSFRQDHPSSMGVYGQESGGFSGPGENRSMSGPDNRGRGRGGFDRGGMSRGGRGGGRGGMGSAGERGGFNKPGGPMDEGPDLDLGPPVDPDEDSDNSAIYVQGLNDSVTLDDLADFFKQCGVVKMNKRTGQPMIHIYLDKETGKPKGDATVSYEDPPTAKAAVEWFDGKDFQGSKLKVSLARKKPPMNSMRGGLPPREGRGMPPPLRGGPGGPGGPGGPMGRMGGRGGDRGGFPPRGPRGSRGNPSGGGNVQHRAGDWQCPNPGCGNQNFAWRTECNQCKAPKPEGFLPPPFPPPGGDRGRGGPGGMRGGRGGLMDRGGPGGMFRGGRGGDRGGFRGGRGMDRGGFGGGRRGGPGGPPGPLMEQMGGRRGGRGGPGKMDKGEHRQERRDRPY

Tests used:
Assay in all cases: log2 fold change, soluble protein after heating vs DMSO (PISA); higher = thermal stabilisation; K562 cells, 10 uM, 30 min; active = over 0.2 and 3.5 SD of the protein, either way, in both replicates (recomputed)
IRAK-1-4 Inhibitor I = compound: C1COCCN1CCN2C3=CC=CC=C3N=C2NC(=O)C4=CC(=CC=C4)[N+](=O)[O-] [IRAK-1-4 Inhibitor I]
Procedure, shortened: (§1)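 K562 cells at 2×10^6 cells/mL were treated for 30 min with 10 μM compound, and aliquots were heated for 3 min over 48°C-58°C before pooling. Extraction used PBS with 0.5% NP-40 at 4°C, and soluble protein was the supernatant after 21,000xg for 90 min, measured by TMTpro 16plex LC-MS/MS with channel sums equalised. Thermal stability values, relative to control samples and from duplicates, are log2 fold changes.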

ibrutinib = compound: C=CC(=O)N1CCC[C@@H](n2nc(-c3ccc(Oc4ccccc4)cc3)c3c(N)ncnc32)C1 [ibrutinib]
Procedure, shortened: as §1

[1] = compound: CC(=O)c1cnc2ccc(-c3cc(Cl)c(O)c(Cl)c3)nc2c1N[C@H]1CC[C@H](CN(C)C)CC1
Procedure, shortened: as §1

ralimetinib = compound: CC(C)(C)Cn1c(N)nc2ccc(-c3[nH]c(C(C)(C)C)nc3-c3ccc(F)cc3)nc21 [ralimetinib]
Procedure, shortened: as §1

[2] = compound: CC(C)(O)CC(=O)NCCn1ccc2ncnc(Nc3ccc(Oc4cccc(C(F)(F)F)c4)c(Cl)c3)c21
Procedure, shortened: as §1

[3] = compound: CC(C)C1=C2N=C(C=C(N2N=C1)NCC3=CC=CC=C3)NCCCCCCN
Procedure, shortened: as §1

[4] = compound: CC(C)C[C@@H](C=O)NC(=O)[C@H](CC(C)C)NC(=O)[C@H](CC(C)C)NC(=O)OCc1ccccc1
Procedure, shortened: as §1

pinometostat = compound: CC(C)N(C[C@H]1O[C@@H](n2cnc3c(N)ncnc32)[C@H](O)[C@@H]1O)[C@H]1C[C@@H](CCc2nc3cc(C(C)(C)C)ccc3[nH]2)C1 [pinometostat]
Procedure, shortened: as §1

[5] = compound: CC1=C(C(CC(=O)N1)C2=CC=C(C=C2)C(F)(F)F)C(=O)NC3=C(C=C4C(=C3)C=NN4)F
Procedure, shortened: as §1

[6] = compound: CC1=C(C2=C(C=C1)C(=O)C3=CC=CC=C3N2CCCN)C
Procedure, shortened: as §1

Measured: log2 fold change

ERCC5 (UniProt P28715)
inactive: IRAK-1-4 Inhibitor I 0.134 | ibrutinib 0.11 | [1] 0.022 | ralimetinib 0.005 | [2] 0.096 | [3] -0.08 | [4] -0.025 | pinometostat 0.082 | [5] 0.018 | [6] -0.284

FAM136A (UniProt Q96C01)
inactive: IRAK-1-4 Inhibitor I -0.033 | ibrutinib -0.019 | [1] -0.009 | ralimetinib -0.066 | [2] 0.013 | [3] 0.049 | [4] -0.075 | pinometostat -0.115 | [5] 0.057 | [6] 0.122

EXOSC7 (UniProt Q15024)
inactive: IRAK-1-4 Inhibitor I 0.028 | ibrutinib 0.021 | [1] 0.002 | ralimetinib -0.008 | [2] 0.055 | [3] 0.09 | [4] 0.016 | pinometostat -0.02 | [5] 0.025 | [6] 0.01

FAHD2B (UniProt Q6P2I3)
inactive: IRAK-1-4 Inhibitor I 0.014 | ibrutinib 0.183 | [1] -0.047 | ralimetinib -0.064 | [2] -0.118 | [3] 0.169 | [4] -0.098 | pinometostat -0.015 | [5] -0.01

ERVK3-1, A0A0U1RQV1
inactive: IRAK-1-4 Inhibitor I 0.02 | ibrutinib -0.014 | [1] -0.114 | ralimetinib -0.094 | [2] -0.02 | [3] 0.043 | [4] -0.025 | pinometostat 0.031 | [5] 0.048 | [6] 0.145

EXOC3 (UniProt O60645)
inactive: IRAK-1-4 Inhibitor I 0 | ibrutinib 0.048 | [1] -0.029 | ralimetinib 0.11 | [2] -0.088 | [3] -0.36 | [4] 0.033 | pinometostat 0.068 | [5] 0.07 | [6] 0.004

EXOSC3 (UniProt Q9NQT5)
inactive: IRAK-1-4 Inhibitor I -0.023 | ibrutinib 0 | [1] 0.001 | ralimetinib 0.01 | [2] 0.007 | [3] -0.014 | [4] 0.004 | pinometostat 0.078 | [5] 0.017 | [6] 0.124

Copied from the results shown (two entries):
ERVK3-1, A0A0U1RQV1
inactive: IRAK-1-4 Inhibitor I 0.02 | ibrutinib -0.014 | [1] -0.114 | ralimetinib -0.094 | [2] -0.02 | [3] 0.043 | [4] -0.025 | pinometostat 0.031 | [5] 0.048 | [6] 0.145

EXOC3 (UniProt O60645)
inactive: IRAK-1-4 Inhibitor I 0 | ibrutinib 0.048 | [1] -0.029 | ralimetinib 0.11 | [2] -0.088 | [3] -0.36 | [4] 0.033 | pinometostat 0.068 | [5] 0.07 | [6] 0.004

(next part)

ESRRA (UniProt P11474)
inactive: IRAK-1-4 Inhibitor I 0.038 | ibrutinib 0.016 | [1] -0.029 | ralimetinib 0.002 | [2] -0.141 | [3] 0.141 | [4] 0.047 | pinometostat 0.136 | [5] 0.061 | [6] -0.078

EXOSC6 (UniProt Q5RKV6)
inactive: IRAK-1-4 Inhibitor I 0.051 | ibrutinib 0.032 | [1] 0.01 | ralimetinib 0.014 | [2] 0.035 | [3] 0.095 | [4] -0.07 | pinometostat -0.014 | [5] 0.007 | [6] 0.059

EXT2 isoform 3 (UniProt Q93063)
inactive: IRAK-1-4 Inhibitor I -0.044 | ibrutinib -0.028 | [1] -0.008 | ralimetinib 0.009 | [2] 0.026 | [3] -0.088 | [4] 0.085 | pinometostat 0.088 | [5] 0.042 | [6] -0.016

ERMAP (UniProt Q96PL5)
inactive: IRAK-1-4 Inhibitor I -0.014 | ibrutinib 0.041 | [1] 0.01 | ralimetinib -0.188 | [2] 0.013 | [3] -0.043 | [4] 0.139 | pinometostat 0.114 | [5] -0.001 | [6] 0.008

EXOSC9 isoform 2 (UniProt Q06265)
inactive: IRAK-1-4 Inhibitor I 0.005 | ibrutinib 0.019 | [1] 0.082 | ralimetinib -0.045 | [2] 0.005 | [3] 0.069 | [4] 0.095 | pinometostat -0.002 | [5] 0.016 | [6] 0.026

EXOSC4 (UniProt Q9NPD3)
inactive: IRAK-1-4 Inhibitor I 0.006 | ibrutinib 0.016 | [1] -0.01 | ralimetinib 0.083 | [2] -0.002 | [3] 0.105 | [4] -0.12 | pinometostat 0.025 | [5] 0.033 | [6] 0.041

ERGIC2 (UniProt Q96RQ1)
inactive: IRAK-1-4 Inhibitor I -0.02 | ibrutinib 0.019 | [1] -0.015 | ralimetinib -0.139 | [2] -0.085 | [3] -0.133 | [4] 0.008 | pinometostat 0.003 | [5] -0.022 | [6] 0.065

EPN1 (UniProt Q9Y6I3)
inactive: IRAK-1-4 Inhibitor I 0.04 | ibrutinib 0.01 | [1] -0.043 | ralimetinib 0.01 | [2] -0.044 | [3] -0.042 | [4] 0.025 | pinometostat 0.001 | [5] -0.026 | [6] -0.009

FAM20B (UniProt O75063)
inactive: IRAK-1-4 Inhibitor I -0.015 | ibrutinib -0.035 | [1] -0.07 | ralimetinib 0.001 | [2] -0.009 | [3] 0.043 | [4] -0.018 | pinometostat -0.003 | [5] 0.051 | [6] -0.022

ERAP1 isoform 2 (UniProt Q9NZ08)
inactive: IRAK-1-4 Inhibitor I -0.046 | ibrutinib -0.018 | [1] 0.021 | ralimetinib 0.037 | [2] 0.021 | [3] -0.039 | [4] 0.038 | pinometostat 0.022 | [5] -0.007 | [6] 0.019

EPB41L3 (UniProt Q9Y2J2)
inactive: IRAK-1-4 Inhibitor I 0.032 | ibrutinib 0.008 | [1] -0.151 | ralimetinib -0.047 | [2] -0.039 | [3] 0.02 | [4] -0.004 | pinometostat -0.033 | [5] -0.004 | [6] 0.006

EZR (UniProt P15311)
inactive: IRAK-1-4 Inhibitor I 0.023 | ibrutinib -0.021 | [1] 0.056 | ralimetinib -0.014 | [2] 0.044 | [3] 0.055 | [4] -0.011 | pinometostat -0.101 | [5] -0.034 | [6] 0.017

ERGIC1 (UniProt Q969X5)
inactive: IRAK-1-4 Inhibitor I 0.05 | ibrutinib 0.025 | [1] -0.011 | ralimetinib -0.023 | [2] -0.036 | [3] -0.033 | [4] 0.006 | pinometostat -0.018 | [5] -0.037 | [6] -0.043

ERCC4 (UniProt Q92889)
inactive: IRAK-1-4 Inhibitor I -0.06 | ibrutinib -0.044 | [1] -0.022 | ralimetinib -0.015 | [2] -0.007 | [3] -0.201 | [4] -0.033 | pinometostat -0.01 | [5] -0.039 | [6] -0.144

EPRS (UniProt P07814)
inactive: IRAK-1-4 Inhibitor I -0.118 | ibrutinib 0.006 | [1] 0.202 | ralimetinib 0.187 | [2] 0.032 | [3] -0.168 | [4] 0.137 | pinometostat 0.458 | [5] 0.05 | [6] -0.052

ERG28 (UniProt Q9UKR5)
inactive: IRAK-1-4 Inhibitor I -0.256 | ibrutinib 0.006 | [1] 0.208 | ralimetinib 0.006 | [2] 0.106 | [3] 0.036 | [4] -0.062 | pinometostat 0.019 | [5] 0.065 | [6] -0.107

ERMP1 (UniProt Q7Z2K6)
inactive: IRAK-1-4 Inhibitor I 0.009 | ibrutinib 0.027 | [1] 0.009 | ralimetinib -0.056 | [2] 0.004 | [3] -0.009 | [4] -0.03 | pinometostat -0.054 | [5] 0.018 | [6] 0.019

ETFDH (UniProt Q16134)
inactive: IRAK-1-4 Inhibitor I 0.033 | ibrutinib -0.016 | [1] -0.009 | ralimetinib -0.02 | [2] -0.1 | [3] -0.059 | [4] -0.031 | pinometostat -0.018 | [5] 0.002 | [6] 0.014

ETFA (UniProt P13804)
inactive: IRAK-1-4 Inhibitor I 0.04 | ibrutinib -0.001 | [1] -0.028 | ralimetinib -0.046 | [2] -0.003 | [3] 0.016 | [4] -0.027 | pinometostat -0.027 | [5] -0.024 | [6] 0.002

EWSR1 isoform 5 (UniProt Q01844)
inactive: IRAK-1-4 Inhibitor I -0.016 | ibrutinib 0.055 | [1] 0.023 | ralimetinib -0.004 | [2] 0.087 | [3] 0.015 | [4] 0.057 | pinometostat -0.014 | [5] -0.019 | [6] 0.18
